Reference: patent US20250340591A1 (ANYGEN CO., LTD., priority 2021, published 2025)

Experiment: peptide synthesis
Conditions: whole synthesis

Row | Substance | purity (crude or final not stated)
1 | His(2-naphthalen-1-methyl)-Lys(caprylic)-Phe-Tyr (HKFY) | 98.5%

Experiment: general procedure: Fmoc solid-phase peptide synthesis; trityl resin; Fmoc-Tyr-wang resin
Conditions: whole synthesis

Row | Substance | purity (crude or final not stated)
2 | N6-octanoyl-N2-(Nt-trityl-L-histidyl)-L-lysyl-L-tyrosyl-L-tyrosine | 98.0%
3 | ((R)-2-((S)-2-((S)-2-amino-3-(2-(thiophen-2-yl)-1H-imidazol-4-yl)propanamido)-6-octanamidohexanamido)-3-(p-tolyl)propanoyl)-L-tyrosine | 96.6%
4 | His(trt)-Lys(lauric)-Phe-Tyr | 95.2%
5 | N6-octanoyl-N2-(Nt-trityl-L-histidyl)-L-lysyl-L-phenylalanyl-L-serine | 88.9%
6 | (6S,9S,12S,15S,18S)-1-amino-6-(((S)-1-amino-1-oxo-3-phenylpropan-2-yl)carbamoyl)-18-((S)-2-((S)-2-((S)-2-amino-3-(1-trityl-1H-imidazol-4-yl)propanamido)-3-phenylpropanamido)-3-(4-hydroxyphenyl)propanamido)-12,15-bis(3-amino-3-oxopropyl)-1-imino-9-methyl-8,11,14,17-tetraoxo-2,7,10,13,16-pentaazaicosan-20-oic acid | 96.6%
7 | (S)-2-((R)-2-((S)-2-((S)-2-amino-3-(1-benzhydryl-1H-imidazol-4-yl)propanamido)-6-octanamidohexanamido)-3-(p-tolyl)propanamido)-3-(4-(sulfooxy)phenyl)propanoic acid | 93.9%
8 | ((R)-2-((S)-2-((S)-2-amino-3-(1-phenyl-1H-imidazol-4-yl)propanamido)-6-octanamidohexanamido)-3-(p-tolyl)propanoyl)-L-tyrosine | 90.3%
9 | His(adamatan-1-yl)-Lys(caprylic)-Phe-Tyr | 69.7%
10 | (S)-N1-((S)-1-(((S)-1-(((S)-1-amino-1-oxo-3-phenylpropan-2-yl)amino)-5-guanidino-1-oxopentan-2-yl)amino)-1-oxopropan-2-yl)-2-((2S,5S,8S,11S,14S)-2-(2-amino-2-oxoethyl)-14-((S)-2-amino-3-(1-trityl-1H-imidazol-4-yl)propanamido)-5-(3-amino-3-oxopropyl)-11-benzyl-8-(4-hydroxybenzyl)-4,7,10,13,20-pentaoxo-3,6,9,12,19-pentaazaheptacosanamido)pentanediamide | 88.5%
11 | His(4-methyltrityl)-Lys(caprylic)-Phe-Tyr | 86.4%
12 | (S)-2-((2S,5S,8S,11S)-2-((1H-imidazol-4-yl)methyl)-11-((S)-2-amino-3-(1-trityl-1H-imidazol-4-yl)propanamido)-8-benzyl-5-(4-hydroxybenzyl)-4,7,10,17-tetraoxo-3,6,9,16-tetraazatetracosanamido)-N1-((S)-5-amino-1-(((S)-1-(((S)-1-(((S)-1-amino-1-oxo-3-phenylpropan-2-yl)amino)-5-guanidino-1-oxopentan-2-yl)amino)-1-oxopropan-2-yl)amino)-1,5-dioxopentan-2-yl)pentanediamide | 87.0%
13 | N6-octanoyl-N2-(Nt-trityl-L-histidylglycyl-L-seryl)-L-lysyl-L-phenylalanyl-L-tyrosine | 95.9%
14 | d-His(trt)-Lys(caprylic)-Phe-Tyr | 92.0%
15 | ((2R)-2-((2S)-2-((2S)-2-amino-3-(1-((2,4-difluorophenyl)(phenyl)methyl)-1H-imidazol-4-yl)propanamido)-6-octanamidohexanamido)-3-(p-tolyl)propanoyl)-L-tyrosine | 90.4%
16 | d-His(trt)-Lys(caprylic)-d-Phe(4-Cl)-d-Tyr | 96.6%
17 | N2-(Nt-benzhydryl-L-histidyl)-N6-octanoyl-L-lysine | 95.2%
18 | N-((S)-5-((S)-2-amino-3-(1-benzhydryl-1H-imidazol-4-yl)propanamido)-6-(((R)-1-(((S)-1-amino-3-(4-hydroxyphenyl)-1-oxopropan-2-yl)amino)-1-oxo-3-(p-tolyl)propan-2-yl)amino)-6-oxohexyl)octanamide | 95.2%
19 | N6-octanoyl-N2-(Nt-trityl-L-histidyl)-L-lysyl-L-phenylalanyl-L-tyrosyl-L-tryptophan | 94.2%
20 | His(4-methylbenzhydryl)-Lys(caprylic)-Phe-Tyr | 94.2%
21 | His(benzyl)-Lys(caprylic)-Phe-Tyr | 93.5%
22 | His(DAMP-3)-Lys(caprylic)-Phe-Tyr | 95.2%
